HELM strings list residues between dots; [ac] is acetyl, [am] amide, other brackets name non-standard units.
Experiment: peptide synthesis
Conditions: whole synthesis, HPLC and MALDI-TOF MS

Substance	final HPLC purity
Asp-Ile-Leu-Arg-Gly-NH2 [DILRG—NH2]	not less than 95%
PEPTIDE1{D.I.L.R.G}$$$$V2.0	not less than 95%

Source: patent US6894153B1 (priority 1999, dated 2005)
